The other results are listed elsewhere or left out. The data scatter; read single values as rough.

The chains behind the UniProt entries cited, without tags or fusion partners. Where a name states a change or a piece, a line headed by the entry shows the natural chain unless it says otherwise.
UniProt Q96C19: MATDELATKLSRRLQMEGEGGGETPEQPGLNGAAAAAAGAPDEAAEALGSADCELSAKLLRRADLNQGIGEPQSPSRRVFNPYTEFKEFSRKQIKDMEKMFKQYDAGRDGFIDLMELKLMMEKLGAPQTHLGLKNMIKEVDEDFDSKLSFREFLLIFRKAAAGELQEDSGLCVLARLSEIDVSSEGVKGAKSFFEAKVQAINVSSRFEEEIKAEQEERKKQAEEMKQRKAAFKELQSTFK
UniProt P41214: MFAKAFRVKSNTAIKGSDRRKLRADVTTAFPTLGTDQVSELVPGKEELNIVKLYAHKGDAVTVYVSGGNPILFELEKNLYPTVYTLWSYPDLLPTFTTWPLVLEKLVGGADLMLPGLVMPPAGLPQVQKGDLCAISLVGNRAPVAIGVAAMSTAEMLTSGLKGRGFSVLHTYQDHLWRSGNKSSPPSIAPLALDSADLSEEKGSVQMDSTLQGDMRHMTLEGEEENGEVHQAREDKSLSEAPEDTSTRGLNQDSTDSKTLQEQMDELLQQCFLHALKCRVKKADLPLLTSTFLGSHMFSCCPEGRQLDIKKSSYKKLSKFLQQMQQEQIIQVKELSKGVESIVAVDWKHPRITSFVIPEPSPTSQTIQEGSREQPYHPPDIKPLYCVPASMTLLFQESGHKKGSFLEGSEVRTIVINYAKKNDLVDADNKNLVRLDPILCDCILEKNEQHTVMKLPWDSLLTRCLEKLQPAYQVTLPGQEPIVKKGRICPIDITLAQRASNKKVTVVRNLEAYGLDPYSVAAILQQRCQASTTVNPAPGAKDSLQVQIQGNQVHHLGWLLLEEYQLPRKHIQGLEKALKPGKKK
UniProt Q9H8V3: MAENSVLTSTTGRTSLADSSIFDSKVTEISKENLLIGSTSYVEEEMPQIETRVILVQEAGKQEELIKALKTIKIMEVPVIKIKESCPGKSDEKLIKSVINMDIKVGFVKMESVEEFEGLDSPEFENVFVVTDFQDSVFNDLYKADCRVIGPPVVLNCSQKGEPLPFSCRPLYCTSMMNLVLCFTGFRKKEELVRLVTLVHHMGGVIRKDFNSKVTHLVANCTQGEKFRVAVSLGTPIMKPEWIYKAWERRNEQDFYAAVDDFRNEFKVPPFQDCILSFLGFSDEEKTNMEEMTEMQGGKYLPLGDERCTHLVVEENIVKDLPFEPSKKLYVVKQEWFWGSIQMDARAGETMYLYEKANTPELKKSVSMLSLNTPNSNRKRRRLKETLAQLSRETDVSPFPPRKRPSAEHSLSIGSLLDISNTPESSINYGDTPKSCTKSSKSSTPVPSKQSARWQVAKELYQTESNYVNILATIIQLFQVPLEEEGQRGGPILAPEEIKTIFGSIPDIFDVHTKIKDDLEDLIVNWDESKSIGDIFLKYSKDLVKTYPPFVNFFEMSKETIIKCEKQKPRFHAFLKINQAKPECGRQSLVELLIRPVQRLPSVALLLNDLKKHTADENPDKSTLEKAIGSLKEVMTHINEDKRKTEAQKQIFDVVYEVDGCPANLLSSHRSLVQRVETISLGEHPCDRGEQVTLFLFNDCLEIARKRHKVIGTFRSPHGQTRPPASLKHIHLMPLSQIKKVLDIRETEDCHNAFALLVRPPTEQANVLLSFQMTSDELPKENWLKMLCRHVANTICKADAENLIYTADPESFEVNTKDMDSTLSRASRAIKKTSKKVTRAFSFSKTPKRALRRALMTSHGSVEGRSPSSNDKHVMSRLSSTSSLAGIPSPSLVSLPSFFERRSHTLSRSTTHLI
UniProt Q96F86: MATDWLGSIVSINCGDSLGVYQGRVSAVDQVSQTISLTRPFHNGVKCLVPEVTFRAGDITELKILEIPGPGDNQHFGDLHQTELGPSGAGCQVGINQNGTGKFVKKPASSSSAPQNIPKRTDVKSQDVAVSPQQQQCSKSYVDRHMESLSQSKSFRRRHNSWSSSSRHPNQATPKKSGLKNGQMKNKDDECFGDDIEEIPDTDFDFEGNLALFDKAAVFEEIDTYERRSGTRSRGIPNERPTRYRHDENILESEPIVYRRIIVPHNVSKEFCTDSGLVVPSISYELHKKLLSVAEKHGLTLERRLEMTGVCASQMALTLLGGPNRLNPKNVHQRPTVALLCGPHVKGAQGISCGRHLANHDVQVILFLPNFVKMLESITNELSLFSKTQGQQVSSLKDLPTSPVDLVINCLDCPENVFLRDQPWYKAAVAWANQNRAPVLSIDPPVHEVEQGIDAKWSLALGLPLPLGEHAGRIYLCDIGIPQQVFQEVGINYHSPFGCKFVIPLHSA
UniProt O60841: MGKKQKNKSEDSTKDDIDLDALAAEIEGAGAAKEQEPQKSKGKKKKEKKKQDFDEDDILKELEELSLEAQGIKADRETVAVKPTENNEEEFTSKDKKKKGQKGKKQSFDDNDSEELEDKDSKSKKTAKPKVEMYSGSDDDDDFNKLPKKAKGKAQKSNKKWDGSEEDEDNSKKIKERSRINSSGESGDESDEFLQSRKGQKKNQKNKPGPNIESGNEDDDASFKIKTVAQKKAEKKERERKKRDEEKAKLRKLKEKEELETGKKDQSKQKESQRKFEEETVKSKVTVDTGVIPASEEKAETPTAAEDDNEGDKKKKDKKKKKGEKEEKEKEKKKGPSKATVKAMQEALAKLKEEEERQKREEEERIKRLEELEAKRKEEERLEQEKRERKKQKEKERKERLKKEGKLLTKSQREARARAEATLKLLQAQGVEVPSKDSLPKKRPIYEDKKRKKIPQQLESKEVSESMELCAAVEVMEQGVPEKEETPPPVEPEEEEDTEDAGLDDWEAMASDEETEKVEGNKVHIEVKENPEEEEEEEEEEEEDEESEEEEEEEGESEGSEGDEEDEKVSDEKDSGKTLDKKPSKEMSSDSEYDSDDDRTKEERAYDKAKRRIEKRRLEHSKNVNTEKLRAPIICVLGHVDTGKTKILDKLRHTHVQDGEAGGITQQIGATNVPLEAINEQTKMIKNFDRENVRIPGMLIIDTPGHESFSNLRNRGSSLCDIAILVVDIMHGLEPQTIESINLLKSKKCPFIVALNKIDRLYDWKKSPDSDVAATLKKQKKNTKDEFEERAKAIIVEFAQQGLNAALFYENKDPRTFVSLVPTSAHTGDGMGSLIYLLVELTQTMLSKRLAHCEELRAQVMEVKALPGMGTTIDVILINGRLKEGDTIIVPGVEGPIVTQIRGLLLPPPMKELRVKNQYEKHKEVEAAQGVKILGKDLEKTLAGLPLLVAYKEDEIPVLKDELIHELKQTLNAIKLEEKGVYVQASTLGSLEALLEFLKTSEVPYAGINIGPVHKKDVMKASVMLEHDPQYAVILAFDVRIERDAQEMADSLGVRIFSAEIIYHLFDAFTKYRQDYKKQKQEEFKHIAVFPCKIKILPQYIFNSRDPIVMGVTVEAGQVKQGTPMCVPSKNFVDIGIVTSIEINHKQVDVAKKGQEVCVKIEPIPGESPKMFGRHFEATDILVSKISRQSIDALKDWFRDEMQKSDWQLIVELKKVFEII
UniProt P15924: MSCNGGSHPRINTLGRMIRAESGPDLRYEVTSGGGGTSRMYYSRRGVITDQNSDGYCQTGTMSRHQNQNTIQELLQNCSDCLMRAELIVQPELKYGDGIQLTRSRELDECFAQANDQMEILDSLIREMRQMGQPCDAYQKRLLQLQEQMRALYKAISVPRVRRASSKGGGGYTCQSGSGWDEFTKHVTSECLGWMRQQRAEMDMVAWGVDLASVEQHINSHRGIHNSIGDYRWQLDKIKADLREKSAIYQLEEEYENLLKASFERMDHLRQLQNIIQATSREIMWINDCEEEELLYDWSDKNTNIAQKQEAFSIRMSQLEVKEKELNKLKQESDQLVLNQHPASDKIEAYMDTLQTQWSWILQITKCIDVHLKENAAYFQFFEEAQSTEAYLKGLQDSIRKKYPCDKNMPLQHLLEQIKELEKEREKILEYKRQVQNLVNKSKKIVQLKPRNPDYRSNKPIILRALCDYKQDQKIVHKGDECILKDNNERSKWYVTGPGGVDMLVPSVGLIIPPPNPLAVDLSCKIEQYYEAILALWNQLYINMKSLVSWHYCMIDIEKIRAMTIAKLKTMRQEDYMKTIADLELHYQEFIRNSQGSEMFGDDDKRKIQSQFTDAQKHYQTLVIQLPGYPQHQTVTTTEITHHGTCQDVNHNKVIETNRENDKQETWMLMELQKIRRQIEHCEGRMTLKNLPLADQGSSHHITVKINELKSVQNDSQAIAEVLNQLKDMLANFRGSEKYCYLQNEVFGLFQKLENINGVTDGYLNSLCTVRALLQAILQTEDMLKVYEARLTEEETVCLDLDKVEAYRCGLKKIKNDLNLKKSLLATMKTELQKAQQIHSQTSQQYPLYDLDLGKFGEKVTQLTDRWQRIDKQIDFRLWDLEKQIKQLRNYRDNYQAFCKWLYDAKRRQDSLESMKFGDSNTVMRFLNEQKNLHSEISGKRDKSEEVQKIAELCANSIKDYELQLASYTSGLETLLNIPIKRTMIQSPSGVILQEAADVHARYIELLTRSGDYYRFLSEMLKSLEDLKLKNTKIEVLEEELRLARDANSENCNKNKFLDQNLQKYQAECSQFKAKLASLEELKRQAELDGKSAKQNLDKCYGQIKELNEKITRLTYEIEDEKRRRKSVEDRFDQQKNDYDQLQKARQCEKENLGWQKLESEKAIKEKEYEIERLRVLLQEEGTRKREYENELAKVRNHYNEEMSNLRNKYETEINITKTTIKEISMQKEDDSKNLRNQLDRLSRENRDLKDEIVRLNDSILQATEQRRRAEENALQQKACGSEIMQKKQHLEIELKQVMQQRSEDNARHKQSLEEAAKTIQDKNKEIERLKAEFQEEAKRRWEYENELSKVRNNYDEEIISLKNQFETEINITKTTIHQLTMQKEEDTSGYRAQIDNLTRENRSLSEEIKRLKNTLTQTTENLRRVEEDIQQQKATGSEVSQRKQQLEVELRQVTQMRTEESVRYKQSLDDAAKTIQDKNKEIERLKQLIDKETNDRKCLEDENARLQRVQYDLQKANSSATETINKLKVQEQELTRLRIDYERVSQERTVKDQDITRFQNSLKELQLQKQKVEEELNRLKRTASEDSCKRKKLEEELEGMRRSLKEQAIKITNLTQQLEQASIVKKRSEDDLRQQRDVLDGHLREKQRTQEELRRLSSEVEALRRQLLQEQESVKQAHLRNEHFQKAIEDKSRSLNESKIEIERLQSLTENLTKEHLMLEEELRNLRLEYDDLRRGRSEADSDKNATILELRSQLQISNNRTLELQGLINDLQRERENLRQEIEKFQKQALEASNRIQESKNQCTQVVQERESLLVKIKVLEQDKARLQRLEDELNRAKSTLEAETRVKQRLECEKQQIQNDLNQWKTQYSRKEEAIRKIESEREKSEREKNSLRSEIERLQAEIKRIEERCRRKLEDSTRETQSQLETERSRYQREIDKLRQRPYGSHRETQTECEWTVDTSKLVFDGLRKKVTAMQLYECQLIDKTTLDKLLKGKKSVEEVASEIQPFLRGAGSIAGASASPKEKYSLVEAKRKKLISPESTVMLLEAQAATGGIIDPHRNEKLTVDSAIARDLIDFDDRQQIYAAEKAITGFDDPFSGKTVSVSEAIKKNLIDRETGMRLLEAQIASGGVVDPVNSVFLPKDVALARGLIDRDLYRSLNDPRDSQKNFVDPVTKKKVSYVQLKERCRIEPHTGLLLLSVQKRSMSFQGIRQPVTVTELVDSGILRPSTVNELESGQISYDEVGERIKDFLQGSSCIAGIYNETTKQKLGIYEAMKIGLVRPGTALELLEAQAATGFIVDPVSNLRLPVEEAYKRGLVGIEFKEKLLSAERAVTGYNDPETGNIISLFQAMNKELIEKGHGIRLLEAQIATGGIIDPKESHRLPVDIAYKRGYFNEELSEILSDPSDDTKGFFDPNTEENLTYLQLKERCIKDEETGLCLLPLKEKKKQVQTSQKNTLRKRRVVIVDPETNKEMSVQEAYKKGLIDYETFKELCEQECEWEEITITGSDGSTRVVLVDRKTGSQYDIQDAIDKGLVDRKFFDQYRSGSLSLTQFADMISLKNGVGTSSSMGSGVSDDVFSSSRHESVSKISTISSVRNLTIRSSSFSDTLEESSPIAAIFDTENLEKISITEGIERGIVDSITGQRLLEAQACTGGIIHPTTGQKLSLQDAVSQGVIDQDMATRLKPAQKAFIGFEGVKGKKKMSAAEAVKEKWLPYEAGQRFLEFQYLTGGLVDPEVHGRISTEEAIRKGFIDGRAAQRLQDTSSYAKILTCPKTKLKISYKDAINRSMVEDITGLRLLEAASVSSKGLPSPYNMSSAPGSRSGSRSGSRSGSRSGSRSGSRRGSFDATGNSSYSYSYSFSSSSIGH

Compound in one assay: ClCC(=O)N[C@H]1CCCc2ccccc12
Put plainly: log2 mean competition ratio of IA-DTB cysteine labelling (DMSO/compound) (log2 ratio); higher = stronger cysteine engagement by compound. To be noted: 50 µM; treatment time: 4 h; cell line lysate: HEK293T. The protocol: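 IA-DTB competitive cysteine chemoproteomics in HEK293T RIPA lysate. Lysates were treated with compound 29 or 30 at 50 or 200 µM for 4 h, then IA-DTB (500 µM, 1 h), trypsin-digested, NeutrAvidin-enriched and analysed by diaPASEF. Competition ratio = intensity DMSO / intensity compound (n=4 treated, n=64 DMSO); binding: mean log2 CR ≥ 1 and p ≤ 0.05 plus QC filters. Target is the cysteine site.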
Take EIF2S2 C226 (UniProt P20042): the “log2 mean competition ratio” value is -0.0771.
As to EIF2S3B C269, the “log2 mean competition ratio” value is -0.321.
On the same count and under the same terms, under EIF2S3B C348 stands 0.423; under EHHADH C51 (UniProt Q08426), 0.339; under EFHD2 C172 (UniProt Q96C19), 0.521.
Take DTL C544 (UniProt Q9NZJ0): the “log2 mean competition ratio” value is -0.221.
The same measure, in the same setting: next, EIF2AK1 C466 (UniProt Q9BQI3): -0.279; EIF2D C528 (UniProt P41214): -0.104.
ECT2 C686 (UniProt Q9H8V3): the “log2 mean competition ratio” value is 0.109.
On the same count and under the same terms, under E4F1 C361 stands -0.352; under EDC3 C137 (UniProt Q96F86), -0.123; under EED C254, -0.0541.
As for DYRK1A C10 (UniProt Q13627), the “log2 mean competition ratio” value was -0.256.
With EIF5B C1126 (UniProt O60841), the “log2 mean competition ratio” value amounted to 0.108.
As for DST C3653 (UniProt Q03001), the “log2 mean competition ratio” value is 0.309.
For the target DSP C482 (UniProt P15924), the “log2 mean competition ratio” value was -0.0508.
In the case of EGLN1 C201 (UniProt Q9GZT9), the “log2 mean competition ratio” value worked out at 0.0964.
EFL1 C670 (UniProt Q7Z2Z2): the “log2 mean competition ratio” value came to 0.0431.
EFR3A C767 (UniProt Q14156): the “log2 mean competition ratio” value is -0.472.
Turning to DST C5610 (UniProt Q03001), the “log2 mean competition ratio” value was -0.506.

The assay is the same for the next values; noted with them: 200 µM; treatment time: 4 h; cell line lysate: HEK293T.
On to EIF2S2 C226 (UniProt P20042), for which the “log2 mean competition ratio” value turned out to be 0.0416.
Regarding EIF2S3B C269, the “log2 mean competition ratio” value was -0.278.
Regarding EIF2S3B C348, the “log2 mean competition ratio” value was determined as 0.148.
Take EHHADH C51 (UniProt Q08426): the “log2 mean competition ratio” value is -0.263.
Regarding EFHD2 C172 (UniProt Q96C19), the “log2 mean competition ratio” value is -0.229.
The same measure, in the same setting: under DTL C544 (UniProt Q9NZJ0) stands 0.0524; under EIF2AK1 C466 (UniProt Q9BQI3), 0.0689; under EIF2D C528 (UniProt P41214), -0.223.
For the target ECT2 C686 (UniProt Q9H8V3), the “log2 mean competition ratio” value stood at 0.119.
Consider E4F1 C361, for which the “log2 mean competition ratio” value is -0.165.
As to EDC3 C137 (UniProt Q96F86), the “log2 mean competition ratio” value is 0.0577.
On the same count and under the same terms, under EED C254 stands 0.0908.
Regarding DYRK1A C10 (UniProt Q13627), the “log2 mean competition ratio” value was -0.0704.
Take EIF5B C1126 (UniProt O60841): the “log2 mean competition ratio” value was determined as 0.0463.
As to DST C3653 (UniProt Q03001), the “log2 mean competition ratio” value was -0.154.
DSP C482 (UniProt P15924): the “log2 mean competition ratio” value is -0.246.
On to EGLN1 C201 (UniProt Q9GZT9), for which the “log2 mean competition ratio” value is -0.107.
EFL1 C670 (UniProt Q7Z2Z2): the “log2 mean competition ratio” value is -0.0389.
On the same count and under the same terms, under EFR3A C767 (UniProt Q14156) stands -0.00469.
For the target DST C5610 (UniProt Q03001), the “log2 mean competition ratio” value is -0.162.

Source of the values: the supplement of paper PMC11732987, “Enantioselective OTUD7B fragment discovery through chemoproteomics screening and high-throughput optimisation” (Communications Chemistry, 2025).
